Our source for the log2FC values is ChEMBL document CHEMBL5674883, “The Heterochromatin Landscape in Migrating Cells and the Importance of H3K27me3 for Associated Transcriptome Alterations” (Cells, 2018).

Protein sequences, listed by entry. Tags and fused reporters are not part of them.
UniProt Q61188, whole entry: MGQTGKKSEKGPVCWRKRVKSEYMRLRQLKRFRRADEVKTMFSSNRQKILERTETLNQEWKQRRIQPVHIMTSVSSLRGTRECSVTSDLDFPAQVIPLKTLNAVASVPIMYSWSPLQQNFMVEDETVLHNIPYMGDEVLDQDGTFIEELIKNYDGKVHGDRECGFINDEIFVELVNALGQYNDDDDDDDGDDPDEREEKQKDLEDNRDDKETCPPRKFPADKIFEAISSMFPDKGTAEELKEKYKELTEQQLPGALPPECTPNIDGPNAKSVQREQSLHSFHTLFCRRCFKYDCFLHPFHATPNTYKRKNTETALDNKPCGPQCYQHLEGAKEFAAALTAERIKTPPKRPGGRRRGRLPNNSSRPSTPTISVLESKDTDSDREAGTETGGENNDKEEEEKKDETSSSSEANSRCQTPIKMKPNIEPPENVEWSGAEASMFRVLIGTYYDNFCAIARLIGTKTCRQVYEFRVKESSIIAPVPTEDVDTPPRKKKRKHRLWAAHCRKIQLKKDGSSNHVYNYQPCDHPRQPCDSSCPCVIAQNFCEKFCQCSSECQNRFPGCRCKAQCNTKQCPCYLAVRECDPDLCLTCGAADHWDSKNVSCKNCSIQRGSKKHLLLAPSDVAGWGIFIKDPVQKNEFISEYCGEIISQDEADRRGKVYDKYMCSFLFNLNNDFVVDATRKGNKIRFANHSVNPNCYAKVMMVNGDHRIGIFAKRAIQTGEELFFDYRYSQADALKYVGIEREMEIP

SMILES strings stand for the structures. Further values from the same series stand in other lists.

What all share (format): cell-based
The target in experiment [1] is T1, RNA polymerase II (Mus musculus) (UniProt P08775+Q8CFI7+P97760+A0A3Q4L2S8+Q80UW8+P61219+P62488+Q923G2+P60898+O08740+Q63871+P62876). The experiment in a line: Inhibition of RNA polymerase II in mouse B16-F1 migrating cells assessed as fold change in Il13ra1-RNA stability at 0.1 mM measured by ChIP-seq analysis relative to control cells.
Experiment [2] has as its target T1, RNA polymerase II (Mus musculus). In words: Inhibition of RNA polymerase II in mouse B16-F1 migrating cells assessed as fold change in Cep295-RNA stability at 0.1 mM measured by ChIP-seq analysis relative to control cells.
For experiment [3] the target is unchanged. In words: Inhibition of RNA polymerase II in mouse B16-F1 migrating cells assessed as fold change in Prelid1-RNA stability at 0.1 mM measured by ChIP-seq analysis relative to control cells.
The target is the same in experiment [4]. In words: Inhibition of RNA polymerase II in mouse B16-F1 migrating cells assessed as fold change in Yif1a-RNA stability at 0.1 mM measured by ChIP-seq analysis relative to control cells.
Experiment [5] has the same target. The experiment in a line: Inhibition of RNA polymerase II in mouse B16-F1 migrating cells assessed as fold change in Mcrip1-RNA stability at 0.1 mM measured by ChIP-seq analysis relative to control cells.
For experiment [6] the target is unchanged. In words: Inhibition of RNA polymerase II in mouse B16-F1 migrating cells assessed as fold change in Ubl7-RNA stability at 0.1 mM measured by ChIP-seq analysis relative to control cells.
The target is the same in experiment [7]. The experiment in a line: Inhibition of RNA polymerase II in mouse B16-F1 migrating cells assessed as fold change in Retreg2-RNA stability at 0.1 mM measured by ChIP-seq analysis relative to control cells.
Experiment [8] shares this target. In words: Inhibition of RNA polymerase II in mouse B16-F1 migrating cells assessed as fold change in Abce1-RNA stability at 0.1 mM measured by ChIP-seq analysis relative to control cells.
Experiment [9] has the same target. The experiment in a line: Inhibition of RNA polymerase II in mouse B16-F1 migrating cells assessed as fold change in Srsf10-RNA stability at 0.1 mM measured by ChIP-seq analysis relative to control cells.
Experiment [10] has the same target. In words: Inhibition of RNA polymerase II in mouse B16-F1 migrating cells assessed as fold change in Herc6-RNA stability at 0.1 mM measured by ChIP-seq analysis relative to control cells.
Experiment [11] has the same target. In words: Inhibition of RNA polymerase II in mouse B16-F1 migrating cells assessed as fold change in Espn-RNA stability at 0.1 mM measured by ChIP-seq analysis relative to control cells.
Experiment [12] has the same target. The experiment in a line: Inhibition of RNA polymerase II in mouse B16-F1 migrating cells assessed as fold change in Sept7-RNA stability at 0.1 mM measured by ChIP-seq analysis relative to control cells.
The target is the same in experiment [13]. The experiment in a line: Inhibition of RNA polymerase II in mouse B16-F1 migrating cells assessed as fold change in Itgb1bp1-RNA stability at 0.1 mM measured by ChIP-seq analysis relative to control cells.
Experiment [14] has the same target. The experiment in a line: Inhibition of RNA polymerase II in mouse B16-F1 migrating cells assessed as fold change in Pdk3-RNA stability at 0.1 mM measured by ChIP-seq analysis relative to control cells.
The target is the same in experiment [15]. The experiment in a line: Inhibition of RNA polymerase II in mouse B16-F1 migrating cells assessed as fold change in Fam133b-RNA stability at 0.1 mM measured by ChIP-seq analysis relative to control cells.
The target is the same in experiment [16]. In words: Inhibition of RNA polymerase II in mouse B16-F1 migrating cells assessed as fold change in Tsr1-RNA stability at 0.1 mM measured by ChIP-seq analysis relative to control cells.
Experiment [17] has the same target. In words: Inhibition of RNA polymerase II in mouse B16-F1 migrating cells assessed as fold change in Ppm1d-RNA stability at 0.1 mM measured by ChIP-seq analysis relative to control cells.
For experiment [18] the target is unchanged. The experiment in a line: Inhibition of RNA polymerase II in mouse B16-F1 migrating cells assessed as fold change in Mif-RNA stability at 0.1 mM measured by ChIP-seq analysis relative to control cells.
Experiment [19] shares this target. The experiment in a line: Inhibition of RNA polymerase II in mouse B16-F1 migrating cells assessed as fold change in Zfyve16-RNA stability at 0.1 mM measured by ChIP-seq analysis relative to control cells.
Experiment [20] shares this target. The experiment in a line: Inhibition of RNA polymerase II in mouse B16-F1 migrating cells assessed as fold change in Lrrfip1-RNA stability at 0.1 mM measured by ChIP-seq analysis relative to control cells.
The target in experiment [21] is Histone-lysine N-methyltransferase EZH2 (Mus musculus) (UniProt Q61188). The experiment in a line: Inhibition of EZH2 in mouse B16-F1 migrating cells assessed as fold change in H3K27me3-independent regulated Zfp292-mRNA expression at 3 uM measured by ChIP-seq analysis relative to control cells.
The target is the same in experiment [22]. In words: Inhibition of EZH2 in mouse B16-F1 migrating cells assessed as fold change in H3K27me3-buffered regulated Stard8-mRNA expression at 3 uM measured by ChIP-seq analysis relative to control cells.
Experiment [23] has the same target. In words: Inhibition of EZH2 in mouse B16-F1 migrating cells assessed as fold change in H3K27me3-dependent regulated Lpar5-mRNA expression at 3 uM measured by ChIP-seq analysis relative to control cells.
Experiment [24] shares this target. The experiment in a line: Inhibition of EZH2 in mouse B16-F1 migrating cells assessed as fold change in H3K27me3-buffered regulated Nedd4l-mRNA expression at 3 uM measured by ChIP-seq analysis relative to control cells.
For experiment [25] the target is unchanged. The experiment in a line: Inhibition of EZH2 in mouse B16-F1 migrating cells assessed as fold change in H3K27me3-buffered regulated Nptx1-mRNA expression at 3 uM measured by ChIP-seq analysis relative to control cells.
The target is the same in experiment [26]. In words: Inhibition of EZH2 in mouse B16-F1 migrating cells assessed as fold change in H3K27me3-buffered regulated Skida1-mRNA expression at 3 uM measured by ChIP-seq analysis relative to control cells.
Experiment [27] has the same target. The experiment in a line: Inhibition of EZH2 in mouse B16-F1 migrating cells assessed as fold change in H3K27me3-buffered regulated Zfp101-mRNA expression at 3 uM measured by ChIP-seq analysis relative to control cells.
For experiment [28] the target is unchanged. The experiment in a line: Inhibition of EZH2 in mouse B16-F1 migrating cells assessed as fold change in H3K27me3-buffered regulated Fdft1-mRNA expression at 3 uM measured by ChIP-seq analysis relative to control cells.
Experiment [29] shares this target. The experiment in a line: Inhibition of EZH2 in mouse B16-F1 migrating cells assessed as fold change in H3K27me3-independent regulated Zswim4-mRNA expression at 3 uM measured by ChIP-seq analysis relative to control cells.
Experiment [30] shares this target. In words: Inhibition of EZH2 in mouse B16-F1 migrating cells assessed as fold change in H3K27me3-dependent regulated Gm15446-mRNA expression at 3 uM measured by ChIP-seq analysis relative to control cells.

As to `OC[C@H]1O[C@@H](n2cnc3cc(Cl)c(Cl)cc32)[C@H](O)[C@@H]1O`, the log2FC in experiment [1] was -0.69; in experiment [2], -0.54; in experiment [3] it was 0.43; in experiment [4], 0.44; in experiment [5], 0.64; in experiment [6], 0.54. Further, the log2FC is 0.42 in experiment [7]; -0.58 in [8]; -0.47 in experiment [9]; -0.66 in experiment [10]; 1.45 in experiment [11]; -0.69 in experiment [12]. The log2FC in experiment [13] is 0.43; in [14], 0.6; in experiment [15] it was -0.5; in experiment [16], -0.68; in experiment [17], -0.77; in experiment [18], 0.56. Moreover, the values for the log2FC in [19] and in experiment [20] were -0.67 and -0.39, respectively.
With `CCCc1cc(C)[nH]c(=O)c1CNC(=O)c1cc(-c2ccnc(N3CCN(C)CC3)c2)cc2c1cnn2C(C)C`, the log2FC in experiment [21] was -0.53; in experiment [22], -0.63; in experiment [23] it was -0.3; in experiment [24] it was 0.39; in [25] it was 1.14; in experiment [26], -0.54. Besides, the log2FC in experiment [27] is -0.47; in experiment [28], 0.46; in experiment [29], 0.45; in experiment [30], -0.37.
